Consider six compounds from patent US8115197B2, “Organic semiconductor material, organic semiconductor thin film and organic semiconductor device” (Sony Corporation, priority 2005, dated 2012).

SMILES strings stand for the structures.

The data set can be described thus: organic field-effect transistor test product, channel forming region spin-coated from solution: mobility in the saturation region. Conditions: concentration 5 g/lit., room temperature; for mobility in the saturation region: spin coating of chloroform solution.

Regarding `CCCc1c(C(=O)OC)c(C(=O)OC)c(CCC)c2cc3c(CCC)c4cc5c(CC)c(CC)c(CC)c(CC)c5cc4c(CCC)c3cc12` [example 3, 2,3-bis methoxycarbonyl-8,9,10,11-tetra ethyl-1,4,6,13-tetra propyl pentacene], the “mobility in the saturation region” value is reported as 9.0×10^−6 cm^2·V^−1·second^−1.

On to `CCCc1c(C(=O)OC)c(C(=O)OC)c(CCC)c2cc3c(CCC)c4ccccc4c(CCC)c3cc12` [example 7], for which, for the setting “spin coating of toluene solution”, the “mobility in the saturated region” value is 2.0×10^−5 cm^2 V^−1 second^−1.

Consider `CCCc1c(CCC)c(CCC)c2cc3c(CCC)c4ccccc4c(CCC)c3cc2c1CCC` [example 6], for which the “mobility in the saturated region” value (spin coating of mesitylene solution) was found to be 0.01 cm^2 V^−1 second^−1.

As for `CCCCc1c(C(=O)OC)c(C(=O)OC)c(CCCC)c2cc3c(CCCC)c4cc5ccccc5cc4c(CCCC)c3cc12` [example 4, 2,3-bis methoxycarbonyl-1,4,6,13-tetrabuyl pentacene], the “mobility in the saturation region” value is given as 9.0×10^−5 cm^2·V^−1·second^−1.

As to `CCCCc1cc(C#N)c(CCCC)c2cc3c(CCCC)c4cc5c(CC)c(CC)c(CC)c(CC)c5cc4c(CCCC)c3cc12` [example 5, 2-cyano-1,4,6,13-tetrabutyl-8,9,10,11-tetraethyl pentacene], the “mobility in the saturation region” value was 1.7×10^−3 cm^2·V^−1·second^−1.

Turning to `CCCCc1c(C(=O)OC)c(C(=O)OC)c(CCCC)c2cc3c(CCCC)c4cc5c(CC)c(CC)c(CC)c(CC)c5cc4c(CCCC)c3cc12` [example 1, 2,3-bis methoxycarbonyl-1,4,6,13-tetrabutyl-8,9,10,11-tetraethyl pentacene], the “mobility in the saturation region” value was 5.0×10^−5 to 1.2×10^−3 cm^2·V^−1·second^−1.
